Measurements reported in US8809529B2, “Imidazo[1,2-α]pyrazine derivatives” (Promega Corporation, priority 2010, dated 2014).
For at least one compound, name, drawing or mass did not settle the structure.

Test: Luminescence screen of OgLuc variants in lysed E. coli cells
Assay type: biochemical
Details: change in luminescence with the listed coelenterazine
Experimental: Resulting libraries were expressed in E. coli and primarily screened with a robotic system for OgLuc variants having increased light output (i.e., increased luminescence, increased brightness, or increased light emission) or a change in relative specificity compared to the corresponding starting OgLuc variant. The robotic primary screen was conducted as follows: individual colonies from the generated library were used to inoculate minimal media in 96-well plates and grown at 37° C. for 17 to 20 hrs (“M1 culture”). The M1 culture was diluted 1:20 with fresh minimal media and grown at 37° C. for 17-20 hrs (“M2 culture”). […] The use of the different induction media was determined based on the luminescence generated between C1+A4E and the novel coelenterazines, i.e., the induction media containing rhamnose and glucose were used with novel coelenterazines that generated less luminescence with C1+A4E compared to the other novel coelenterazines with C1+A4E.
Luminescence measurements for each variant were taken 3 min after reagent addition and relative luminescence unit (RLU) values were normalized to an average of 8 control wells of the corresponding starting OgLuc variant for each plate. […]

| SMILES | Evolution trend: C1A4E to QC27 #9a |
| --- | --- |
| CC(C)c1[nH]c(-c2ccccc2)cn2c(=O)c(Cc3ccc(O)cc3)nc1-2 [PBI-3841] | UP 440X |
| O=c1c(Cc2ccccc2)nc2c(Cc3ccccc3)[nH]c(-c3ccccc3)cn1-2 [Coelenterazine hh, bis-deoxycoelenterazine, reference compound] | DOWN 300X |
